{
  "source": "patent US8361965B2",
  "about": "“Recombinant chimeric protein of neutrophil inhibitory factor and hirugen, and pharmaceutical composition thereof” (Lunan Pharmaceutical Group Corporation, priority 2008, dated 2013)",
  "molecules": {"B1": {"name": "TNHH: recombinant chimeric protein of neutrophil inhibitory factor and hirugen, Met-NIF-GGGGG-FPRPGSGG-Hirugen (SEQ ID NO: 3), expressed in E. coli (protein)", "chain": "MNEHNLRCPQNGTEMPGFNDSIRLQFLAMHNGYRSKLALGHISITEESESDDDDDFGFLPDFAPRASKMRYLEYDCEAEKSAYMSARNCSDSSSPPEGYDENKYIFENSNNISEAALKAMISWAKEAFNLNKTKEGEGVLYRSNHDISNFANLAWDAREKFGCAVVNCPLGEIDDETNHDGETYATTIHVVCHYPKINKTEGQPIYKVGTPCDDCSEYTKKADNTTSADPVCIPDDGVCFIGSKADYDSKEFYRFRELGGGGGFPRPGSGGNGDFEEIPEEYL", "modifications": "N-terminal Met"}},
  "tested_on": "human peripheral blood leukocyte",
  "experiment": "inhibition of H2O2 release from human peripheral blood leukocyte",
  "format": "cell-based",
  "settings": "OD 610 nm, control 0.672",
  "procedure": "10 ml venous blood was taken from healthy people, and heparin sodium was added for anticoagulation. 10 ml HAS buffer (comprising RPMI 1640+10 mM HEPES+1.2 mM CaCl2+1.0 mM MgCl2+1% HAS, pH 7.4) was added into the blood and mixed. Leukocyte separation solution (Sangon) was charged into a sterile centrifuge tube, and whole blood mixture of the same volume was added slowly, and then centrifuged at 2000 rpm for 15 min. Leukocyte solution was taken from the interface and appropriate 1640 culture medium was added, centrifuged for 10 min, and washed twice. The supernatant was discarded, and appropriate HAS Buffer was added for resuspending the precipitate so as to prepare leukocyte suspension. The cell density was counted and adjusted to 4×10^7/ml. The product was separated at 37° C. and used within an hour.\nCoating the 24-well plate with Hank's solution comprising 50% fetal bovine serum and culturing at 37 for 60 min; washing the plate with 0.15 M NaCl twice; diluting the cells to 6.0×10^6/ml with the buffer solution for release assay, adding cells, and culturing at 37 for 5 min; adding FMLP to the final concentration of 250 nM; adding TNHH samples at different concentrations and culturing at 37 for 60 min; pipetting the cell suspension, centrifuging at 8000×g for 3 min, and collecting the supernatant. Adding the supernatant into multiple-wells of a 96-well ELISA plate, adding 1 N NaOH (25 μl) for stopping the reaction, and determining the OD at 610 nm wavelength. Calculating the IC50 value of TNHH for inhibiting H2O2 release, and using the standard H2O2 solution as a control.",
  "data": [
    {"molecule": "B1", "values": [
      {"measurement": "Average OD value", "setting": "TNHH 0.781 μg/ml", "result": 0.681},
      {"measurement": "Average OD value", "setting": "TNHH 1.562 μg/ml", "result": 0.628},
      {"measurement": "Average OD value", "setting": "TNHH 3.125 μg/ml", "result": 0.519},
      {"measurement": "Average OD value", "setting": "TNHH 6.25 μg/ml", "result": 0.402},
      {"measurement": "Average OD value", "setting": "TNHH 12.5 μg/ml", "result": 0.317},
      {"measurement": "Average OD value", "setting": "TNHH 25 μg/ml", "result": 0.259},
      {"measurement": "Average OD value", "setting": "TNHH 50 μg/ml", "result": 0.135},
      {"measurement": "Average OD value", "setting": "TNHH 100 μg/ml", "result": 0.121}
    ]}
  ]
}
